Experimental data as given in PubChem BioAssay AID1347076 (National Center for Advancing Translational Sciences (NCATS), 2019).
Out of some 400,000 compounds screened, about 13,000 (3.2%) were called active. The inconclusive results got no clear call from the source; some entries with a clear call stand among them for comparison. Calls come from the whole dose curve; as a rule, active = well fitted cell-killing curve with a large enough effect; inconclusive = small, poorly fitted or top-dose-only effect, or effect the other way; inactive = flat fitted curve, though single readings scatter. Potencies of inconclusive entries are doubtful fits and often do not repeat.

Test: qHTS assay for MDR1-selective chemotherapeutics: Primary screen using the drug-selected MDR subline cells KB-V1; note: nearly all actives have a fitted effect of over 60% in size
Details: KB-V1 MDR cells viability, CellTiter-Glo, 72 h; series mostly up to 46.1 µM
Summary of the method: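 Cytotoxicity via CellTiter-Glo luminescence after 72 h compound exposure at 37 degrees C. Cells: drug-selected KB-V1 line, DMEM phenol-red free plus 10% FBS. Compounds tested at multiple concentrations; normalized data fitted to concentration-effect curves.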
Potency is the fitted concentration of half-maximal effect.

**Q.** For `COc1ccc(C2=Nn3c(nnc3-c3ccccc3Cl)SC2)cc1OC1CCOC1` (stereo not drawn), which Potency is on record?
**A.** The Potency was inconclusive: 23.1 µM [cytotoxic, single point].

**Q.** With `CC(C)Cn1c(-c2cc(Br)ccc2F)nc2c1c(=O)[nH]c(=O)n2CC(C)C` as the compound, how does the Potency read?
**A.** The Potency was inconclusive: 3.66 µM [cytotoxic, full curve].

**Q.** Which Potency does the source give for `CCc1ccc(CN2CCSCC2)cc1` here?
**A.** The Potency was inconclusive: 25.9 µM [rising, partial curve, poor fit].

**Q.** Which Potency does the source give for `Cc1cc(N)n2nc(-c3ccc(C(C)(C)C)cc3)cc2n1` here?
**A.** Its Potency is inconclusive: 14.6 µM [cytotoxic, partial curve].

**Q.** Which Potency does the source give for `Cc1cccc2cc3c(N)c(C(=O)N4CCCc5ccccc54)sc3nc12` here?
**A.** The Potency was inconclusive: 2.91 µM [cytotoxic, partial curve, poor fit].

**Q.** Which Potency does the source give for `Cc1ccc2cccc(OCC(=O)N3CC(C)CC(C)C3)c2n1` (stereo not drawn) here?
**A.** The Potency was inconclusive: 13 µM [cytotoxic, partial curve, poor fit].

**Q.** For `Cc1cccc(CN2CCN(C(=O)c3cccc4ccccc34)CC2)c1`, which Potency is on record?
**A.** Its Potency is “inactive”.

**Q.** For `Cc1ccccc1NC(=O)Nc1cccs1`, which Potency is on record?
**A.** Its Potency is inconclusive: 32.6 µM [rising, single point].

**Q.** With `COC(=O)[C@@]12C[C@@H](CC(=O)NCCCCc3ccccc3)C(=O)N(Cc3cccc4ccccc34)C1=CCC(C)(C)C2` as the compound, how does the Potency read?
**A.** The Potency was active: 18.4 µM.

**Q.** Which Potency does the source give for `O=C(COC(=O)c1ccccc1OCc1ccc(Cl)cc1)NCC1CCCO1` (stereo not drawn) here?
**A.** The Potency was inconclusive: 29.1 µM [cytotoxic, single point].

**Q.** Which Potency does the source give for `O=C(COC(=O)/C=C/c1ccc(Cl)c(Cl)c1)NC1CCS(=O)(=O)C1` (stereo not drawn) here?
**A.** Its Potency is inconclusive: 1.84 µM [rising, full curve, poor fit].

**Q.** Which Potency does the source give for `CCOC(=O)N1CCN(C(=O)CN(c2cc(C(F)(F)F)ccc2Cl)S(C)(=O)=O)CC1` here?
**A.** Its Potency is inconclusive: 29.1 µM [cytotoxic, single point].

**Q.** Which Potency does the source give for `COc1ccc(/C=C/C(=O)c2ccc(O)cc2)cc1CN1CCOCC1` here?
**A.** The Potency was inconclusive: 18.4 µM [cytotoxic, single point].

**Q.** For `CCOC(=O)c1n[nH]n(-c2cc(Cl)cc(Cl)c2)c1=O`, which Potency is on record?
**A.** The Potency was “inactive”.

**Q.** With `COc1ccc(-c2csc(C3=C(O)CN(Cc4ccc(S(N)(=O)=O)cc4)C3=N)n2)cc1OC` as the compound, how does the Potency read?
**A.** The Potency was inconclusive: 20.6 µM [rising, partial curve, poor fit].

**Q.** Which Potency does the source give for `CCOC(=O)c1c(NC(=O)C2CCN(S(=O)(=O)c3ccc(Cl)cc3)CC2)sc2c1CCCC2` here?
**A.** The Potency was inconclusive: 14.6 µM [cytotoxic, partial curve, poor fit].

**Q.** With `O=P1(O)CC2=C(CC=CC2)C1` as the compound, how does the Potency read?
**A.** Its Potency is “inactive”.

**Q.** For `Cc1cc(C)c2nc(C(F)(F)F)nc(NCCCN3CCOCC3)c2c1`, which Potency is on record?
**A.** Its Potency is active: 3.66 µM.
